Results: PubChem BioAssay (NCATS)
“And” between values parts separate entries of the source, which are not always exact repeats. Equal entries are not always repeated. Shown are results outside the selection of hits, which stands elsewhere. Records with an inconclusive call do not appear. The source made the active and inactive calls. Unless noted, calls come from the whole dose curve; as a rule, active = well fitted curve in the direction sought with a large enough effect; inconclusive = small, poorly fitted or top-dose-only effect, or another doubt; inactive = no such curve, though single readings can be large; an effect the other way counts as inactive or inconclusive.

By UniProt entry, the sequences of proteins in these tests, tags left out. Where a name states a change or a piece, a line headed by the entry shows the natural chain unless it says otherwise.
UniProt Q07869: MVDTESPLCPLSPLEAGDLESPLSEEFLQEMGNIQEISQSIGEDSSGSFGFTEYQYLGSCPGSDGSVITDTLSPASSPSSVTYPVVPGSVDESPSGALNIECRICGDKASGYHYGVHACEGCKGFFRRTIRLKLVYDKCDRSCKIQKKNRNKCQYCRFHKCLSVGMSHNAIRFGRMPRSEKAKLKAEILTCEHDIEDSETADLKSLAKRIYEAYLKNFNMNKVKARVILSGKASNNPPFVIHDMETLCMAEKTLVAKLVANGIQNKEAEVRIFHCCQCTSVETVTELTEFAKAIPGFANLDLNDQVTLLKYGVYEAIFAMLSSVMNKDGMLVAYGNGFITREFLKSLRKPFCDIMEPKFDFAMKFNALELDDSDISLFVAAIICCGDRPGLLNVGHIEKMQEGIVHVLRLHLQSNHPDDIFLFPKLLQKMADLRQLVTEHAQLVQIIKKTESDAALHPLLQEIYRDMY
UniProt P51449: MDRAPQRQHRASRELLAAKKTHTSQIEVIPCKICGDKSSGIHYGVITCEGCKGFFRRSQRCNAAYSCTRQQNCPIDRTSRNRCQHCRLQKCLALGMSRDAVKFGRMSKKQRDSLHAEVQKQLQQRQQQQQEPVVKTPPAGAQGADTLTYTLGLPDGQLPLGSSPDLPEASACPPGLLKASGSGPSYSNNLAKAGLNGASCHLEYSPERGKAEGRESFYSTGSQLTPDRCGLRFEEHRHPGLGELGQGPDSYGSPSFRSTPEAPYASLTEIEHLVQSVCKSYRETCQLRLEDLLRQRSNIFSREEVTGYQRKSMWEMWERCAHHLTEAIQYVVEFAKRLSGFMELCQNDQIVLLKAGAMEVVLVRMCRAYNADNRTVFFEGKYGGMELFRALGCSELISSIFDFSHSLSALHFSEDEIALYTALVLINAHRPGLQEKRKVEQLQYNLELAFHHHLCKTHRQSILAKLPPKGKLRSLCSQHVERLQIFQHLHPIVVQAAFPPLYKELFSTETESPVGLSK

How the values were obtained:
[1] = biological target: Peroxisome proliferator-activated receptor alpha (Homo sapiens) (UniProt Q07869); assay: qHTS assay for small molecule agonists of the peroxisome proliferator-activated receptor alpha (PPARalpha) signaling pathway (AID 651778); conditions: PathHunter PPARalpha complementation, chemiluminescence, 6 h; stronger effect = higher value; note: % of control where 0% means no effect
Method in brief: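 Chemiluminescence from complemented enzyme reported PPARalpha activation in cells after 6 hr of compound treatment at 37 C. The detection reagent was incubated for 60 min at room temperature, and compounds were scored as agonists.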

[2] = qHTS Assay for Identifying Gametocytocidal Compounds (AID 743244);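 note: % is set by controls: 0 for no effect and ±100 for the full control effect; actives lower the fluorescent signal which means gametocytes are killed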; conditions: P. falciparum 3D7 stage III-V gametocytes, alamarBlue, 72 h; stronger effect = lower value
Method in brief: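 Compounds are pinned into medium, gametocytes (stage III–V, 3D7, 20,000 cells/well) added, and plates held 72 h at 37 °C in 5% CO2. AlamarBlue follows for 24 h before fluorescence reading.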

[3] = qHTS assay for cell viability of the p53RE-bla HCT-116 cell line (AID 743292); conditions: p53RE-bla HCT-116 viability, ATP luminescence, 16 h; at 95 µM (top of the series); note: % is set by controls: 0 for no effect and ±100 for the full control effect; nearly all actives have a fitted effect of over 55% in size
Method in brief: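 Viability of compound-treated p53RE-bla HCT-116 cells is taken from ATP-dependent luciferase luminescence. Treatment lasts 16 h at 37 C after a 5 h settling period; detection follows 30 min at room temperature.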

[4] = qHTS assay for measurement of the activity of small molecule inhibitors on Zika virus induced Caspase-3 activity in human iPSC derived neural progenitor cells (hNPCs) (AID 1224857); conditions: hNPCs ZIKV-induced caspase-3/7, Caspase-Glo luminescence, 6 h; at 45.7 µM (top of the series); note: % of control where 0% means no effect; nearly all actives have a fitted effect of over 65% in size
Method in brief: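 Pretreat hNPCs with compound 1 h; infect ZIKV 2 FFU/cell; 6 h 37 C, 5% CO2; Caspase-Glo 3/7, 30 min RT; luminescence; normalize to no-virus and virus-only wells.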

[5] = qHTS assay for measurement of the activity of small molecule inhibitors on Zika virus induced Caspase-3 activity in human astrocytoma cells (AID 1224859); conditions: SNB-19 ZIKV-induced caspase-3/7, luminescence, 6 h; at 45.7 µM (top of the series);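 note: plate controls were ZIKV-infected untreated cells for no effect and uninfected cells for full effect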
Method in brief: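 Human SNB-19 astrocytoma cells in RPMI 1640 with 10% FBS receive compound one hour ahead of Zika virus at 2 FFU/cell. After 6 h infection, caspase-3/7 activity is detected by Caspase-Glo luminescence.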

[6] = qHTS assay to identify small molecule inhibitors of chordoma cells - UCH-1 (AID 1259355); conditions: UCH-1 chordoma viability, CellTiter-Glo, 48 h, combination; at 46.1 µM (top of the series); note: % is set by controls: 0 for no effect and ±100 for the full control effect; nearly all actives have a fitted effect of over 55% in size
Method in brief: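 800 cells/well, overnight attach; compounds pinned at 15 concs, then auranofin/camptothecin/doxorubicin/rubitecan/topotecan combo added; 48hr 37 C, 5% CO2; CellTiter-Glo, 30min RT, luminescence.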

[7] = qHTS assay to identify small molecule inhibitors of chordoma cells - UCH-2 (AID 1259356); conditions: UCH-2 chordoma viability, CellTiter-Glo ATP luminescence, 48 h; at 46.1 µM (top of the series); note: % is set by controls: 0 for no effect and ±100 for the full control effect
[8] = NS1 protein of Zika virus - qHTS assay to identify small molecule inhibitors in human HEK 293 cells (AID 1347053); conditions: HEK293 ZIKV MR766 infection, NS1 TR-FRET, 24 h; at 46.1 µM (top of the series);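 note: plate controls were infected untreated cells for no effect and uninfected cells for full effect; nearly all actives have a fitted effect of over 55% in size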
Method in brief: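 Compound-treated (1 h pre-infection) HEK 293 cells infected with ZIKV MR766, MOI = 0.5; after 24 h at 37 C, NS1 read by TR-FRET; data normalized to uninfected and infected controls.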

[9] = qHTS of pediatric cancer cell lines to identify multiple opportunities for drug repurposing: Primary screen for TC32 cells (AID 1347089); conditions: TC32 Ewing sarcoma viability, CellTiter-Glo luminescence, 48 h; at 45.8 µM (top of the series); note: % is set by controls: 0 for no effect and ±100 for the full control effect; nearly all actives have a fitted effect of over 60% in size
Method in brief: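 qHTS, TC32, 48 h drug treatment, CellTiter-Glo luminescence as a proxy for metabolically active cells; primary top concentration 46 µM (MIPE 11-pt, NPC 8-pt); confirmatory 11-pt.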

[10] = qHTS of pediatric cancer cell lines to identify multiple opportunities for drug repurposing: Primary screen for DAOY cells (AID 1347090); conditions: DAOY medulloblastoma viability, CellTiter-Glo luminescence, 48 h; at 46 µM (top of the series);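 note: plate controls were DMSO for no effect and bortezomib for full effect; nearly all actives have a fitted effect of over 55% in size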
Method in brief: (§1)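 Cell viability, CellTiter-Glo luminescence; 500-1,000 cells/well, 8- or 11-point titration, 48 h compound exposure at 37 degrees C, 5% CO2. Controls: DMSO neutral, bortezomib 2.3 µM final as positive.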

[11] = qHTS of pediatric cancer cell lines to identify multiple opportunities for drug repurposing: Primary screen for SJ-GBM2 cells (AID 1347091); conditions: SJ-GBM2 viability, CellTiter-Glo luminescence, 48 h; at 46 µM (top of the series);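 note: plate controls were DMSO neutral control for no effect and bortezomib for full effect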
Method in brief: as §1

[12] = qHTS of pediatric cancer cell lines to identify multiple opportunities for drug repurposing: Primary screen for A673 cells (AID 1347092); conditions: A673 Ewing sarcoma viability, CellTiter-Glo ATP luminescence, 48 h; at 46 µM (top of the series); note: % is set by controls: 0 for no effect and ±100 for the full control effect; nearly all actives have a fitted effect of over 45% in size
Method in brief: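 Luminescence from CellTiter-Glo, taken after 15 min at room temperature, served as the proxy for metabolically active cells following 48 h treatment. Both potency and efficacy were taken from curves fitted to the titration data.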

[13] = qHTS of pediatric cancer cell lines to identify multiple opportunities for drug repurposing: Primary screen for SK-N-MC cells (AID 1347093); conditions: SK-N-MC viability, CellTiter-Glo luminescence, 48 h; at 46 µM (top of the series);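 note: plate controls were DMSO neutral control for no effect and bortezomib for full effect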
Method in brief: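 Metabolically active cells were quantified by ATP-dependent luminescence (CellTiter-Glo, 15 min at room temperature) following 48 h treatment. Cells had been plated at 500-1,000 per well and settled for 5 h beforehand.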

[14] = qHTS of pediatric cancer cell lines to identify multiple opportunities for drug repurposing: Primary screen for BT-37 cells (AID 1347094); conditions: BT-37 viability, CellTiter-Glo luminescence, 48 h; at 57.3 µM (top of the series);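 note: plate controls were DMSO for no effect and bortezomib for full effect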
Method in brief: (§2)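 Plated cells (500-1,000 per well, growth media) were allowed to settle for 5 hours, treated with compound dilutions for 48 hours, then lysed with CellTiter-Glo for 15 min at room temperature before luminescence reading.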

[15] = qHTS of pediatric cancer cell lines to identify multiple opportunities for drug repurposing: Primary screen for NB-EBc1 cells (AID 1347095); conditions: NB-EBc1 neuroblastoma viability, CellTiter-Glo luminescence, 48 h; at 46 µM (top of the series);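 note: plate controls were DMSO neutral control for no effect and bortezomib for full effect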
Method in brief: as §2

[16] = qHTS of pediatric cancer cell lines to identify multiple opportunities for drug repurposing: Primary screen for U-2 OS cells (AID 1347096); conditions: U-2 OS viability, CellTiter-Glo luminescence, 48 h; at 46 µM (top of the series);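 note: plate controls were DMSO wells for no effect and bortezomib positive control wells for full effect; nearly all actives have a fitted effect of over 50% in size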
Method in brief: (§3)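 Cells (500-1,000/well) rested 5 h, then received compounds for 48 h; metabolically active cells were measured by CellTiter-Glo luminescence. Final concentrations spanned up to 46 µM (MIPE, 11-point) or 0.59 nM-46 µM (NPC, 8-point) in primary screens, 11-point in follow-ups.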

[17] = qHTS of pediatric cancer cell lines to identify multiple opportunities for drug repurposing: Primary screen for Saos-2 cells (AID 1347097); conditions: Saos-2 viability, CellTiter-Glo ATP luminescence, 48 h; at 46 µM (top of the series); note: % is set by controls: 0 for no effect and ±100 for the full control effect; nearly all actives have a fitted effect of over 40% in size
Method in brief: as §2

[18] = qHTS of pediatric cancer cell lines to identify multiple opportunities for drug repurposing: Primary screen for SK-N-SH cells (AID 1347098); conditions: SK-N-SH viability, CellTiter-Glo luminescence, 48 h; at 57 µM (top of the series); note: % is set by controls: 0 for no effect and ±100 for the full control effect; nearly all actives have a fitted effect of over 65% in size
Method in brief: as §3

[19] = biological target: Nuclear receptor ROR-gamma (Homo sapiens) (UniProt P51449); assay: qHTS assay for small molecule antagonists of the retinoid-related orphan receptor gamma (ROR-gamma) signaling pathway (AID 651802); conditions: ROR-gamma antagonist cell reporter assay; at 92.2 µM (top of the series);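 note: CHO cells with doxycycline-induced ROR-gamma expression; luciferase reporter luminescence driven by ROR response element; % is set by controls: 0 for no effect and ±100 for the full control effect; nearly all actives have a fitted effect of over 60% in size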
Method in brief: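 Luciferase read-out: ONE-Glo luminescence after 30 min at room temperature, following 16hr doxycycline induction at 37C, 5% CO2 of CHO cells with TET-inducible ROR and RORE-LUC reporter; decreased luminescence = reduced reporter activity.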

[20] = qHTS assay for small molecule antagonists of the retinoid-related orphan receptor gamma (ROR-gamma) signaling pathway - cell viability counter screen (AID 720652; active = well fitted curve in the direction sought with a large enough effect in the repeat runs; an effect the other way counts as inactive or inconclusive;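 note: CHO reporter cells with doxycycline-induced ROR-gamma expression; compound exposure lasted 16 hr before ATP read; % is set by controls: 0 for no effect and ±100 for the full control effect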); conditions: RORgamma reporter cell line viability counter screen; at 92.2 µM (top of the series)
Method in brief: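 CHO RORE-LUC/TET-ROR line, 1,000 cells/well, 37 C 5% CO2 5 hr; cpd or DMSO + doxycycline induction, 16 hr. CellTiter-Glo, 30 min RT, luminescence = ATP content.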

CC(C)(C)c1ccc(O)cc1
inactive: max response [1] -1.13% | max response [2] -9.25% | activity change, negative = cytotoxicity [3] 2.96% | activity change, negative = inhibition [4] 21.7% | activity change, negative = inhibition [5] 10.2% | activity, negative = inhibition [6] -1.93% | activity change, negative = inhibition [7] 0% | activity change, negative = inhibition [8] -2.4% | activity change, negative = cytotoxic [9] 14.2% | activity change, negative = cytotoxic [10] 12.6% | activity change, negative = cytotoxic [11] 17.1% | activity change, negative = cytotoxic [12] 4.23% | activity change, negative = cytotoxic [13] 2.01% | activity change, negative = cytotoxic [14] 8.76% | activity change, negative = cytotoxic [15] 14.4% | activity change, negative = cytotoxic [16] 11.4% | activity change, negative = cytotoxic [17] -11.8% | activity change, negative = cytotoxic [18] -7.02%

Cc1ccc2ccccc2c1C
inactive: max response [1] -5.07% | activity change, negative = inhibition [19] 26.2% | activity change, negative = cytotoxicity [20] -4.12% | activity change, negative = cytotoxicity [3] 2.31%

O=[N+]([O-])c1ccccc1Cl
inactive: max response [1] -0.973% and -2.35% | activity change, negative = inhibition [19] -4.23% | activity change, negative = cytotoxicity [20] 4.96% | activity change, negative = cytotoxicity [3] 4.33% and -10.3%

Oc1c(Cl)cc(Cl)cc1Cl
inactive: max response [1] 7.94% and -0.431% | activity change, negative = cytotoxicity [20] -5.3% | activity change, negative = cytotoxicity [3] -20.2% and -8.35%

Cc1ccc(O)cc1C
inactive: max response [1] -3.19% | activity change, negative = inhibition [19] 22% | activity change, negative = cytotoxicity [20] 9.89% | activity change, negative = cytotoxicity [3] 1.1%
